Experimental findings from article doi:10.1101/160580 (bioRxiv, 2017) are described below.

Results are given in words; binding and its absence hold for the method and conditions named.

The assay concerns the target F104A lysin (monomeric mutant of red abalone sperm lysin) (Haliotis rufescens (red abalone)) (UniProt P04552). As to the kind of experiment: NMR relaxation.

B1: F104A lysin (monomeric mutant of red abalone sperm lysin) (natural protein)
chain: RSWHYVEPKFLNKAFEVALKVQIIAGFDRGLVKWLRVHGRTLSTVQKKALYFVNRRYMQTHWANYMLWINKKIDALGRTPVVGDYTRLGAEIGRRIDMAYFYDALKDKNMIPKYLPYMEEINRMRPADVPVKYMGK
Take B1: the binding result is “no binding (tested: ∼150-450 μM)”.
